Reference: PMC12583701
No constants are given. Whether binding was seen depends on the method and setting. In cells and extracts the contact can be indirect. A result given as binding can be weak or reduced; the word gives no strength.

Sequences of proteins named here, by UniProt entry; tags and fusion partners are left off. A change or cut given only in a name is not applied to a line headed by its entry.
UniProt P49024: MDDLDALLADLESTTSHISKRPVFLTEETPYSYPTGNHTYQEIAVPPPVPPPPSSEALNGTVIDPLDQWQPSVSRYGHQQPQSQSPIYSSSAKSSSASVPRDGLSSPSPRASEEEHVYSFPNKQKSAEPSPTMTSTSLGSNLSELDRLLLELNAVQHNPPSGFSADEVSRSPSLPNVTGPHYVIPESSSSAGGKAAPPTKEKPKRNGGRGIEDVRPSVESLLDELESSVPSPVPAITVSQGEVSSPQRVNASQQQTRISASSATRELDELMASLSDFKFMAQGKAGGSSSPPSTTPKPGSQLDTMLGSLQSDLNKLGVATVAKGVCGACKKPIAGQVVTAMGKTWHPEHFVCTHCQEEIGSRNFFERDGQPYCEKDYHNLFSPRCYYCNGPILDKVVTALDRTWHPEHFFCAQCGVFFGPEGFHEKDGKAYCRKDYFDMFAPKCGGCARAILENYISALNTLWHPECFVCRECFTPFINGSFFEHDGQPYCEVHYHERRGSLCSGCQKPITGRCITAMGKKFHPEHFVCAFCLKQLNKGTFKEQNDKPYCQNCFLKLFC

Key:
Assay in all cases: co-IP; anti-FLAG immunoprecipitation of lysates of Neuro2a cells transfected with FLAG-tagged paxillin variants, in the presence of forskolin; immunoblot of endogenous partners
[1] = target: Flag-Paxillin(P398A/Y399A) (UniProt P49024)
[2] = target: Flag-Paxillin(P398A/Y399A,516A/Y517A;P575A/Y576A) (UniProt P49024)
[3] = target: Flag-Paxillin(P516A/Y517A) (UniProt P49024)
[4] = target: Flag-Paxillin(P575A/Y576A) (UniProt P49024)

- binding [1]: binds
- binding [2]: binds
- binding [3]: binds
- binding [4]: binds
B1: importin β2 (protein, UniProt Q8BFY9 1-898)
chain: MVWDRQTKMEYEWKPDEQGLQQILQLLKESQSPDTTIQRTVQQKLEQLNQYPDFNNYLIFVLTKLKSEDEPTRSLSGLILKNNVKAHFQNFPNGVTDFIKSECLNNIGDSSPLIRATVGILITTIASKGELQNWPDLLPKLCSLLDSEDYNTCEGAFGALQKICEDSAEILDSDVLDRPLNIMIPKFLQFFKHSSPKIRSHAVACVNQFIISRTQALMLHIDSFIENLFALAGDEEAEVRKNVCRALVMLLEVRMDRLLPHMHNIVEYMLQRTQDQDENVALEACEFWLTLAEQPICKDVLVRHLPKLIPVLVNGMKYSDIDIILLKGDVEEDETIPDSEQDIRPRFHRSRTVAQQHEEDGIEEEDDDDDEIDDDDTISDWNLRKCSAAALDVLANVYRDELLPHILPLLKELLFHHEWVVKESGILVLGAIAEGCMQGMIPYLPELIPHLIQCLSDKKALVRSITCWTLSRYAHWVVSQPPDTYLKPLMTELLKRILDSNKRVQEAACSAFATLEEEACTELVPYLAYILDTLVFAFSKYQHKNLLILYDAIGTLADSVGHHLNKPEYIQMLMPPLIQKWNMLKDEDKDLFPLLECLSSVATALQSGFLPYCEPVYQRCVNLVQKTLAQAMLNNAQPEQYEAPDKDFMIVALDLLSGLAEGLGGNIEQLVARSNILTLMYQCMQDKMPEVRQSSFALLGDLTKACFQHVKPCIADFMPILGTNLNPEFISVCNNATWAIGEISIQMGIEMQPYIPMVLHQLVEIINRPNTPKTLLENTAITIGRLGYVCPQEVAPMLQQFIRPWCTSLRNIRDNEEKDSAFRGICTMISVNPSGVIQDFIFFCDAVASWINPKDDLRDMFCKILHGFKNQVGDENWRRFSDQFPLPLKERLAAFYGV
